Binding data for two molecules are collected here from publication PMC7210770.

Protein sequences, listed by entry. Tags and fused reporters are not part of them. Lines headed by an entry give the natural chain unless they say otherwise; changes in a name come on top.
UniProt Q38998: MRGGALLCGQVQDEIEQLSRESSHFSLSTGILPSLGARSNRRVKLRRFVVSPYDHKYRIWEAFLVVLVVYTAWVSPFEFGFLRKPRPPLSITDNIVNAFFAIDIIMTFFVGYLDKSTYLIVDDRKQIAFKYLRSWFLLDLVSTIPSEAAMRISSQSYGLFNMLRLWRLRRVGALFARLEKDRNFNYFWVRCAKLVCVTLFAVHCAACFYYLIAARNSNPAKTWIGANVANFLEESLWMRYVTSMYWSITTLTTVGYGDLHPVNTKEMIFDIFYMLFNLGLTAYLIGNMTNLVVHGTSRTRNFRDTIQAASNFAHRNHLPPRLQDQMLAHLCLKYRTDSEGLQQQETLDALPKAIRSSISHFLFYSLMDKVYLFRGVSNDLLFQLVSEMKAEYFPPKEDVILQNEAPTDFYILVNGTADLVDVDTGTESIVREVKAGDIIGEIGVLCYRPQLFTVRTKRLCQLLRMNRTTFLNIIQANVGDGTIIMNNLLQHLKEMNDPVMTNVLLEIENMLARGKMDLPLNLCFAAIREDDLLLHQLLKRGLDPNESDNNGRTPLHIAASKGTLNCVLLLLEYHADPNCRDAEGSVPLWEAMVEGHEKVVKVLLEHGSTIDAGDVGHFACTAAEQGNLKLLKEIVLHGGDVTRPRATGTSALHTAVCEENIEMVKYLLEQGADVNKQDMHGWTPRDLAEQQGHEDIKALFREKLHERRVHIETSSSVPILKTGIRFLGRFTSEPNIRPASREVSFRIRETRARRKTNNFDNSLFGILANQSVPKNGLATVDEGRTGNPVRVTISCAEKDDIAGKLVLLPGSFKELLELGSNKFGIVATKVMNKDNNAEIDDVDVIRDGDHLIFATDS

Assay [1] has as its target T1, CIPK25ΔC (kinase domain of CIPK25), yeast two-hybrid construct in pDEST32 (Arabidopsis thaliana (amplified from Col-0 genomic DNA)) (UniProt Q8W1D5).
T1 sequence: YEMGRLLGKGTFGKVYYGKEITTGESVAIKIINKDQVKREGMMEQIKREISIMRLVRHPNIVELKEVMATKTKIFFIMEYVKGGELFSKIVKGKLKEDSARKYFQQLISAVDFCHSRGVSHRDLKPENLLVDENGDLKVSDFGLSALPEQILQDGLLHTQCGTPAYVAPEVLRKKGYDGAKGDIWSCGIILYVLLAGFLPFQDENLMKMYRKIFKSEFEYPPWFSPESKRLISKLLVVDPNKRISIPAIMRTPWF
As to the kind of experiment: two-hybrid; yeast MaV203, pDEST32 / pDEST22; interaction screened on SD-LTUH + 15 mM 3AT and by X-gal staining; empty vectors as negative controls.

In assay [2] the target is C-terminal cytosolic domain of AKT1 (AKT1c), BiFC construct in pDH51-GW-YFPN (Arabidopsis) (UniProt Q38998). Put plainly: split reporter; BiFC with split YFP (pDH51-GW-YFPC / pDH51-GW-YFPN) co-transfected into Arabidopsis mesophyll protoplasts, 16 h at 25 °C in the dark, confocal microscopy; empty vectors as negative controls.

No constants are given. Whether binding was seen depends on the method and setting. Binding calls can cover weak binding; strength is not graded here. For some assays here: In cells and extracts the contact can be indirect.

As to “C-terminal cytosolic domain of AKT1 (AKT1c), yeast two-hybrid construct in pDEST22 (from UniProt Q38998) (domain or fragment)”, the binding result in assay [1] was “binds”.

B1: CIPK25ΔC (kinase domain of CIPK25, lacking the C-terminal domain), BiFC construct in pDH51-GW-YFPC (domain or fragment, UniProt Q8W1D5 43-297)
chain: YEMGRLLGKGTFGKVYYGKEITTGESVAIKIINKDQVKREGMMEQIKREISIMRLVRHPNIVELKEVMATKTKIFFIMEYVKGGELFSKIVKGKLKEDSARKYFQQLISAVDFCHSRGVSHRDLKPENLLVDENGDLKVSDFGLSALPEQILQDGLLHTQCGTPAYVAPEVLRKKGYDGAKGDIWSCGIILYVLLAGFLPFQDENLMKMYRKIFKSEFEYPPWFSPESKRLISKLLVVDPNKRISIPAIMRTPWF
In the case of B1, in assay [2], the binding entry is “binds”.
